# Measurements taken from the supplement of paper PMC3334620.
# Over roughly 33,000 sequences, “E-score (-0.5 to 0.5)” has its median near -0.016; the highest 2% begin near 0.3. This is one part of the list.
# Biological target: T1, Yer184c (UniProt P39961)
# T1 sequence: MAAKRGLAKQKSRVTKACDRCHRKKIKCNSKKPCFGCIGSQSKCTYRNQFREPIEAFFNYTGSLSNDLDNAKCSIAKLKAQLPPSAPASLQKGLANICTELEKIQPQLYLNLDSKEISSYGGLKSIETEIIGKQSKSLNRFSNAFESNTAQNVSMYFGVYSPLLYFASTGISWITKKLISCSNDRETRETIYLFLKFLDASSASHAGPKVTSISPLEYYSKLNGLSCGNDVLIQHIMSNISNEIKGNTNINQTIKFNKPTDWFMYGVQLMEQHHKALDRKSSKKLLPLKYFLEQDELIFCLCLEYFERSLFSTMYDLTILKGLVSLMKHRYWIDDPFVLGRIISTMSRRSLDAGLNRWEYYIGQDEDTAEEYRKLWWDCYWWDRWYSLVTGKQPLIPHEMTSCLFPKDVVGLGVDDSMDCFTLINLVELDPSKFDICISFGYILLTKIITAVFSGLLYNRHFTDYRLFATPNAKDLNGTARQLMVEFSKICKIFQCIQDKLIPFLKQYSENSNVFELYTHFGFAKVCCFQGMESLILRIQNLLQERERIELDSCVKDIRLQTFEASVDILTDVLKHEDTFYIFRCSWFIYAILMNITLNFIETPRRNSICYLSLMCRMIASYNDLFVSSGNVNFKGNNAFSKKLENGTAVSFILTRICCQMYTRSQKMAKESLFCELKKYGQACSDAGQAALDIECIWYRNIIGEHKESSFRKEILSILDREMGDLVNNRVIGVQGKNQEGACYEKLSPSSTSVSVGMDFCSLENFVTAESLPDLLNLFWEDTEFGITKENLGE
# Test: PBM E-score (8-mer binding enrichment) (E-score (-0.5 to 0.5)); higher = stronger / more preferred TF binding
# Conditions: protein concentration: 100 nM; construct: GST-full length
# Protocol: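 Universal 'all 10-mer' protein binding microarrays (Agilent AMADID 015681) probed with GST-tagged S. cerevisiae TFs (full-length or DBD) made by in vitro transcription/translation (PURExpress), about 100-200 nM. Bound TF was detected with fluorescent anti-GST. Each ungapped 8-mer (which stands for itself and its reverse complement) is scored by the PBM enrichment score (E-score), a modified Wilcoxon-Mann-Whitney statistic from -0.5 to +0.5, computed with the Universal PBM Analysis Suite. Scale: above 0.35 generally sequence-specific binding.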
row,Sequence,PBM E-score
1,AAATTTTG,0.115
2,AGCACTGC,-0.231
3,AAGTCAGC,0.0853
4,GCTTCTCC,-0.163
5,CTGGTACC,-0.163
6,TTCGCCAA,-0.104
7,ACAGTGAC,0.0379
8,CATCGGCG,0.123
9,ATGCGGAC,0.0835
10,CGTCAATA,0.0212
11,AACTATCA,0.173
12,CTGCGCGC,0.21
13,GTATTACA,0.0534
14,CGGTGCCA,-0.0521
15,AAAGGTGG,-0.129
16,ACGGCCTA,0.0524
17,AGATGGCA,0.0936
18,ACTCAGAT,0.0283
19,ACGATTAA,0.0458
20,ACCTGAGC,-0.164
21,TCCGCGCA,0.171
22,AATTACCG,0.245
23,AACATTCG,0.00818
24,GTTCAGAA,0.102
25,AACAAGAA,0.257

# Exported bar-delimited: part of the list above
row | Sequence | PBM E-score
3 | AAGTCAGC | 0.0853
4 | GCTTCTCC | -0.163
5 | CTGGTACC | -0.163
6 | TTCGCCAA | -0.104
7 | ACAGTGAC | 0.0379
8 | CATCGGCG | 0.123
9 | ATGCGGAC | 0.0835

# (cont.)

row,Sequence,PBM E-score
1,AGTGGATG,-0.0688
2,ACAGACCC,0.0241
3,TACCTGAA,0.0773
4,AAAGCCCG,0.0436
5,GTTTTGTA,0.234
6,GACGCGAC,-0.125
7,CTCTTGAC,-0.00283
8,CTCCCTTC,-0.385
9,AACGGGTC,-0.104
10,AGCAAGAT,0.0999
11,AGCGGTCA,-0.0407
12,TCTATTCA,0.0659
13,GGCTGACA,0.121
14,CATTCGGC,0.269
15,ACGAGAGG,-0.277
16,TACTTCTA,-0.0618
17,AATACAGA,0.0675
18,CGTACATA,0.13
19,ACCCGACT,-0.0291
20,GCGAATCC,0.045
21,AAGCCGAG,0.286
22,ACGAAGCG,-0.198
23,CAGGTCCA,-0.127
24,CTTGCGCC,-0.0711
25,CACCACTG,-0.243

row,Sequence,PBM E-score
1,CCGACTAC,0.0891
2,ATCGACGA,0.0279
3,AGCGCCCT,-0.0757
4,AAGAGGCC,-0.172
5,GTTCGTGA,-0.0517
6,CAAAGTGG,-0.316
7,AGTACGTA,0.0723
8,GGTAGACC,-0.136
9,GTGACCGA,0.0994
10,GACCGACC,0.0582
11,GACCGGAC,0.245
12,CTCTAATC,-0.0252
13,CACGAGTC,-0.172
14,ACCTTCGC,0.0149
15,CAGCGGAG,-0.0658
16,CAACAGCA,0.0148
17,CAAACGAG,0.0721
18,AATCATAG,0.0958
19,ATATTGAA,0.181
20,CTAGTGAA,0.026
21,ATGTCTTC,-0.108
22,CCAGGGAC,-0.317
23,ACCCAAAC,0.17
24,ATCCCCAC,-0.218
25,ATTCTTTG,0.0711

# Rewritten with tabs: entries from further up
row	Sequence	PBM E-score
14	ACCTTCGC	0.0149
15	CAGCGGAG	-0.0658

# The list goes on.

row,Sequence,PBM E-score
1,ATTAAGGA,0.0561
2,GCCATTCA,0.0596
3,AGCTGCGA,-0.107
4,GCTGATGA,-0.015
5,ACCTCGCA,-0.114
6,AACAGCAA,0.0855
7,CGCCAAGC,-0.184
8,ACACACGC,-0.00408
9,AACCGTGA,0.0722
10,CTCAGAAA,0.0154
11,CTTACCCC,-0.258
12,ACTTGTTG,-0.279
13,AGTACGCA,-0.208
14,AAGAGACG,0.172
15,ATGTACCG,0.0916
16,AAGGAGTG,-0.146
17,ACCAATAT,0.0712
18,CAGACTAA,0.101
19,CGGCTCTA,0.267
20,ACGCAATG,-0.176
21,CGGCCATA,0.0112
22,CGCCATAG,-0.127
23,ATAGCACC,-0.0386
24,AGGTCTTA,-0.0941
25,ATGTAAAG,0.0647

row,Sequence,PBM E-score
1,CAGCATAG,0.0287
2,CAGAGTCG,-0.195
3,GAGACCTC,-0.086
4,CACGGTGA,-0.0122
5,CTCGGCGC,0.357
6,GTACGTAC,-0.138
7,GTCATTCA,0.0449
8,GCAAAACA,0.0139
9,AATACTAT,0.0915
10,CGCGGGGA,0.125
11,ACCCGTAA,-0.0644
12,CCCTCGAC,-0.174
13,CGTCGGCC,0.233
14,ATGACAAG,-0.0717
15,GAGCCTTA,-0.125
16,GACTTGGC,-0.19
17,CAAGACCA,-0.0843
18,ATAGAATA,0.171
19,AAGGAGGC,-0.305
20,GTCTGCTA,0.136
21,CCCCCTCG,-0.289
22,ACTTCTGC,-0.0109
23,CATGACGC,-0.191
24,ATTATGGG,-0.174
25,AAGATATA,0.104

row,Sequence,PBM E-score
1,CTGCAACA,0.152
2,CCTGTGTA,-0.029
3,ATCTATCA,0.148
4,AGAGATAC,-0.0106
5,AGGGTGTC,-0.182
6,CAGGAGAG,-0.152
7,CCAAGAGG,-0.18
8,AGAGCAAA,-0.0476
9,GGCTACCC,-0.147
10,GGATCCGA,0.242
11,GACATGTC,-0.298
12,AAAAAACA,0.198
13,ACCCGGAC,0.055
14,ATTATCTA,0.183
15,GTTATGCA,-0.178
16,GAAGGCGA,-0.176
17,ATCATACC,0.0582
18,CCTGCCTA,0.0375
19,AGTTGTTG,-0.0477
20,CAGAGCGG,-0.0765
21,ATATACTA,0.195
22,CCCGTGTA,-0.0128
23,AAGAAACG,0.139
24,CCTGAGAA,0.0534
25,TCAGTCGA,-0.0884

row,Sequence,PBM E-score
1,GCTGCACC,-0.179
2,CGCATTAC,0.0155
3,CTACCATC,-0.174
4,ATCTCATA,0.0683
5,AGAGCTTA,0.0135
6,AACTGTAA,0.0303
7,CCCGGAAC,0.298
8,GAGGCCGC,-0.19
9,ACCTCATC,-0.085
10,CGGGCTTA,0.157
11,CGGACCCG,0.27
12,CGTAACTA,0.00684
13,AAAAGAGC,-0.134
14,AGTATATC,0.155
15,ATGTAGGA,-0.082
16,CGGTTTTC,0.209
17,ATCGACAT,0.137
18,CGTTCGGC,0.27
19,GTGGGACA,-0.0231
20,CAAGTCCC,-0.218
21,GACCGTAC,-0.238
22,CACTGAAA,0.146
